# Experimental data reported in the supplement of paper PMC10849652.
# By UniProt entry, the sequences of proteins in these tests, tags left out. Where a name states a change or a piece, a line headed by the entry shows the natural chain unless it says otherwise.
# UniProt Q13905: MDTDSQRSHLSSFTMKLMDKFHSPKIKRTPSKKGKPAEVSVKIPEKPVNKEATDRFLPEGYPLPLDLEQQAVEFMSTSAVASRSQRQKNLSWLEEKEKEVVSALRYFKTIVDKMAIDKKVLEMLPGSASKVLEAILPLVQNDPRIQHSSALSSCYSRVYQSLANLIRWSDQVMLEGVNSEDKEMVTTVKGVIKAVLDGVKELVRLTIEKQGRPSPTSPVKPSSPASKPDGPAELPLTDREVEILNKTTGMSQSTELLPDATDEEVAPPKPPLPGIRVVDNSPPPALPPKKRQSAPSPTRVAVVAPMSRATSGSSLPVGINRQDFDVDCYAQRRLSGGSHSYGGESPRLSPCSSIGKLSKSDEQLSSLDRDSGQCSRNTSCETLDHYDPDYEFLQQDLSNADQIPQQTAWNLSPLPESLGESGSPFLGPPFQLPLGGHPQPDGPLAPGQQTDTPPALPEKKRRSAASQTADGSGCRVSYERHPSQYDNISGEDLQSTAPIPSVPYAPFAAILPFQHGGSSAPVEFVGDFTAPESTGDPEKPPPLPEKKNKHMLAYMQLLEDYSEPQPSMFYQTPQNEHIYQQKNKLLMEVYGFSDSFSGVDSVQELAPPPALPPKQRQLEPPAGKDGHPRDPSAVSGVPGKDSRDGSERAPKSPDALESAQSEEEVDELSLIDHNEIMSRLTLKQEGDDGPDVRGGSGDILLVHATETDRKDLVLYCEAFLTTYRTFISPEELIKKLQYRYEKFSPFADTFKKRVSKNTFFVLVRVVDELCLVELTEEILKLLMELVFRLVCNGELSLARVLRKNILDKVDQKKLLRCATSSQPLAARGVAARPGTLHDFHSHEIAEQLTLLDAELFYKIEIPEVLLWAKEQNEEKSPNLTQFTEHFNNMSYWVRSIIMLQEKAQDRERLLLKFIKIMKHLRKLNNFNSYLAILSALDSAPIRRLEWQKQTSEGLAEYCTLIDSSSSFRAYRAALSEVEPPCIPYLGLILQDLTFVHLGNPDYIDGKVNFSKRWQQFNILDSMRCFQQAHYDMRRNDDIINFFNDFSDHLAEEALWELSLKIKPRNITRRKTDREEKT
# UniProt Q09028, whole entry, looked up: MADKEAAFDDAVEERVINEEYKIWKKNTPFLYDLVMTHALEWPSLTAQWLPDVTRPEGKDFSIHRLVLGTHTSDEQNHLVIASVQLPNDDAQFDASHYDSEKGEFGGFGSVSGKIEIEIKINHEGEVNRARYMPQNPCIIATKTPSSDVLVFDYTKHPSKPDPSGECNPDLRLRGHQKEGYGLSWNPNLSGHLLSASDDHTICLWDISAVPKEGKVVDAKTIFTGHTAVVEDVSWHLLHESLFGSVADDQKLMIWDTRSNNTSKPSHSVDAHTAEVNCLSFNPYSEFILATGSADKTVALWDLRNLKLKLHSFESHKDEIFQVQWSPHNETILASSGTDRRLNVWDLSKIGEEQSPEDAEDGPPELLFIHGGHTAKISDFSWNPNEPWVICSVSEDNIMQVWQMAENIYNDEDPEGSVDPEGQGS
# UniProt Q9H477: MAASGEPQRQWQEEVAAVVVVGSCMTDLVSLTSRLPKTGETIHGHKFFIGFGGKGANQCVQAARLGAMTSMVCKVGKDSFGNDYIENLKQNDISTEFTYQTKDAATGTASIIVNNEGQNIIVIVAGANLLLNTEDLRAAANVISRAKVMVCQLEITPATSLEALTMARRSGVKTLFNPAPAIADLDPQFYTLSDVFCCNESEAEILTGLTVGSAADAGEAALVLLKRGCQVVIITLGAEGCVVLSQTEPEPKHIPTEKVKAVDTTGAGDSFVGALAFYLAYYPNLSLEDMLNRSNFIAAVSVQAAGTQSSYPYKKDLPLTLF
# UniProt O95716: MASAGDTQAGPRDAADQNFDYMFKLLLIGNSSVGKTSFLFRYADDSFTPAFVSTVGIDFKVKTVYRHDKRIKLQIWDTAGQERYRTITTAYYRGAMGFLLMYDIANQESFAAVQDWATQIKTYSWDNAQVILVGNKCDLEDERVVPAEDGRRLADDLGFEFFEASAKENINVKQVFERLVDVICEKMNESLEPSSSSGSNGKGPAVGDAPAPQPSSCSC
# UniProt Q8N0V3: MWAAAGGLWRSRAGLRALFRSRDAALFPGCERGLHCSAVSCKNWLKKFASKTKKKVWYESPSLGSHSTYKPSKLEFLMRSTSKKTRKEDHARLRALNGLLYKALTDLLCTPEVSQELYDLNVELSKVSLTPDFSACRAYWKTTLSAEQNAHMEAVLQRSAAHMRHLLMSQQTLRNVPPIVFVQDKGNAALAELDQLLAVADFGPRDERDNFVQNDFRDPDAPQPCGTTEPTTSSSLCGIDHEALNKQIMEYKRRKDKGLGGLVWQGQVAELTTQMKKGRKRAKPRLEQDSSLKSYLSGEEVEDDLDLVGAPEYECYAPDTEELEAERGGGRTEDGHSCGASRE
# UniProt A4D1S5: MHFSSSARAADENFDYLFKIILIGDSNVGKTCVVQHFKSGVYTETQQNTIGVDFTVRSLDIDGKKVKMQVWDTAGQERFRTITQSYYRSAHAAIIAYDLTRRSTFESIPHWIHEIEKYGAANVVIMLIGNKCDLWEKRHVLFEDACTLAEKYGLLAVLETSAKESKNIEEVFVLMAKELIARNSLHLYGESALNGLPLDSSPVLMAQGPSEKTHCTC
# UniProt Q96D70: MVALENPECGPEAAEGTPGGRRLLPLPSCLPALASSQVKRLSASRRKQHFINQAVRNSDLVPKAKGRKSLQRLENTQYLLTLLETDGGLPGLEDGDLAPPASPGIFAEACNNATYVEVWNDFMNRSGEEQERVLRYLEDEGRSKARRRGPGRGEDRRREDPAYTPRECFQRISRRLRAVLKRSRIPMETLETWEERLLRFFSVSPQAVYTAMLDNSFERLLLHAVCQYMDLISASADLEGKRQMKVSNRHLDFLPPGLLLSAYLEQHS
# UniProt Q86X27: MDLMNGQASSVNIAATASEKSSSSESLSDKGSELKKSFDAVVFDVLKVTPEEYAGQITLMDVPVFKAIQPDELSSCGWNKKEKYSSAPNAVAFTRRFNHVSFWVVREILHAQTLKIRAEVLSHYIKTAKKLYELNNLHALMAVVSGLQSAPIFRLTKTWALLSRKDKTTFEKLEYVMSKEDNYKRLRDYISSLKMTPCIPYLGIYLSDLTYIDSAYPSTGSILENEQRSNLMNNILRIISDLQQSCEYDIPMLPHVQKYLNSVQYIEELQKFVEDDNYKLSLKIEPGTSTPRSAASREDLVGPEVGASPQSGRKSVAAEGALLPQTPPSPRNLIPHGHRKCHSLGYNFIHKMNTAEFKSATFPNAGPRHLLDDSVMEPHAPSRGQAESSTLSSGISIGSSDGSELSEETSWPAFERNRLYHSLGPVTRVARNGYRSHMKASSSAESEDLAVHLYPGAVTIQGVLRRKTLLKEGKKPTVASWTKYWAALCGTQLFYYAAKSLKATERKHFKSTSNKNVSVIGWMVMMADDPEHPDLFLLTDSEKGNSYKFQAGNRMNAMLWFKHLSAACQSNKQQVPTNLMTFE
# UniProt Q9NS23: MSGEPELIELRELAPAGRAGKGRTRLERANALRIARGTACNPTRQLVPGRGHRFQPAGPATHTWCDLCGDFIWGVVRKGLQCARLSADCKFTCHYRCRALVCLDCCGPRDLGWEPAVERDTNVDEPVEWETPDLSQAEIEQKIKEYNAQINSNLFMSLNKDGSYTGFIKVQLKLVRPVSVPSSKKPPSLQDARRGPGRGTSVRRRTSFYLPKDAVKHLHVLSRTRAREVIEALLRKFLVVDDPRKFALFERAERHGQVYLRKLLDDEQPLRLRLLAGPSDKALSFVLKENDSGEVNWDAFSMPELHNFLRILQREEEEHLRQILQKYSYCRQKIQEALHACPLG
# UniProt Q9H5N1: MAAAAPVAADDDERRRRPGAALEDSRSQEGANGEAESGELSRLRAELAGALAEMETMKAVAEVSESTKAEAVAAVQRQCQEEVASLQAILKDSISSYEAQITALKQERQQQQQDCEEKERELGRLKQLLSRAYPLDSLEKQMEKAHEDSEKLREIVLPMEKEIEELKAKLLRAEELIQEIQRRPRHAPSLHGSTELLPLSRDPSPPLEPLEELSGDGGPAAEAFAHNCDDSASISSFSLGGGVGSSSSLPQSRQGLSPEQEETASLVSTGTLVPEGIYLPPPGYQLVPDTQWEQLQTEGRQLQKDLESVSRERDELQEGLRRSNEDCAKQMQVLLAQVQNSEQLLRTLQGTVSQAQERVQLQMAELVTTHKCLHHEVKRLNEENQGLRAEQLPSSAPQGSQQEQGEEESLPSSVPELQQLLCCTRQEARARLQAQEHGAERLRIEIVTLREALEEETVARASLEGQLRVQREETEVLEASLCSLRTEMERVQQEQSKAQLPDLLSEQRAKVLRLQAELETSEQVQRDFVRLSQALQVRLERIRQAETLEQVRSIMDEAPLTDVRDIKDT
# UniProt P28749: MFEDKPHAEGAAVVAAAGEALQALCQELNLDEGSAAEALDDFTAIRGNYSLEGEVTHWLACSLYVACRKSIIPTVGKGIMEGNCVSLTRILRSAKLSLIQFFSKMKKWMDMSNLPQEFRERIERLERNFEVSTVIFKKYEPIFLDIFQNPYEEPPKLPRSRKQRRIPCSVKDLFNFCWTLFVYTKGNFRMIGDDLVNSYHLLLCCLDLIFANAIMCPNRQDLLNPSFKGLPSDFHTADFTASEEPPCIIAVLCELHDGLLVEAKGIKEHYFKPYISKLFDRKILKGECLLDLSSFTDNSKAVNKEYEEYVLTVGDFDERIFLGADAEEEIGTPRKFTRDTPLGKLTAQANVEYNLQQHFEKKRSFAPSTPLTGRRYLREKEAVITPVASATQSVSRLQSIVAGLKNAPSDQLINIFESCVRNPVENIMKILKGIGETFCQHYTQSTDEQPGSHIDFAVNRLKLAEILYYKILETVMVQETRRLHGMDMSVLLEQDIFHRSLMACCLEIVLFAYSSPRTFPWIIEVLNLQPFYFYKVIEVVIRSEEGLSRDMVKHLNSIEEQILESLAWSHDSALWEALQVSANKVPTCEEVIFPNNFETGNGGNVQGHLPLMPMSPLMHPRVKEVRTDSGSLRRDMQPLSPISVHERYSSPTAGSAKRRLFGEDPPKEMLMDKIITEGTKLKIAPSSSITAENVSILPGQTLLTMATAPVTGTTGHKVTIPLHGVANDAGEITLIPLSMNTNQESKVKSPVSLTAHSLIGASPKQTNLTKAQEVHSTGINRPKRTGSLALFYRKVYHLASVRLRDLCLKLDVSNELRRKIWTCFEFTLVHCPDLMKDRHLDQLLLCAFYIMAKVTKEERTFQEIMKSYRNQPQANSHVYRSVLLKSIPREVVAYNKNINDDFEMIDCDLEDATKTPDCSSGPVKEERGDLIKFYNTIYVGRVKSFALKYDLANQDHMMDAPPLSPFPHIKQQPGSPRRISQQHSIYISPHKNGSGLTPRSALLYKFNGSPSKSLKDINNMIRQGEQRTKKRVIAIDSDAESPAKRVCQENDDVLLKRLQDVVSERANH
# UniProt Q8WZA2: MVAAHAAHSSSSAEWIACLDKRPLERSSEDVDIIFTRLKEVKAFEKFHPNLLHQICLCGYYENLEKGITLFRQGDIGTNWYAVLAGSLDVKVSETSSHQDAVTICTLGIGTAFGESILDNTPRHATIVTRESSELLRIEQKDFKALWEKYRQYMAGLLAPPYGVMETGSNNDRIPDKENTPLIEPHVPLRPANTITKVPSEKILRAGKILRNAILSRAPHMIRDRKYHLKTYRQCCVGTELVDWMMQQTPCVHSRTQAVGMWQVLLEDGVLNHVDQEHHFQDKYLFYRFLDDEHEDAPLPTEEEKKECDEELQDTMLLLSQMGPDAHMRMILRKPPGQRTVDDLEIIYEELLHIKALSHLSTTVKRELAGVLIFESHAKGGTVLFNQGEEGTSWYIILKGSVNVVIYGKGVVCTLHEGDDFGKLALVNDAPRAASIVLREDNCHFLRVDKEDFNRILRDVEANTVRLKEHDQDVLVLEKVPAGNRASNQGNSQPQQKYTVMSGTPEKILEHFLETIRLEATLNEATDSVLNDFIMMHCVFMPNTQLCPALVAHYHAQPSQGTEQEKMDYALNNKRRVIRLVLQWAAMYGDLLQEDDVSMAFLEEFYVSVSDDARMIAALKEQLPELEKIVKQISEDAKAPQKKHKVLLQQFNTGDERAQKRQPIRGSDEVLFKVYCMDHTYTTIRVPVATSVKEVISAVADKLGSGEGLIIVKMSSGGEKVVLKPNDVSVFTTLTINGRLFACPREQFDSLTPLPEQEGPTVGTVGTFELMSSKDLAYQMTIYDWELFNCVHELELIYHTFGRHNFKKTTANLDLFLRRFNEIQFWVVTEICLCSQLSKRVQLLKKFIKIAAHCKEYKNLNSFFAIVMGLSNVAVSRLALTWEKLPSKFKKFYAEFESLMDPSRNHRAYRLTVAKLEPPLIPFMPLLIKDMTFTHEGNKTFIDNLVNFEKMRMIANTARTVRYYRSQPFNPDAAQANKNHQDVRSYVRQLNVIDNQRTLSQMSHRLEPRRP
# Some of the results follow.
# How the values were obtained:
# Test in all cases: log2 fold change, soluble protein after heating vs DMSO (PISA); higher = thermal stabilisation; K562 cells, 10 uM, 30 min; active = over 0.2 and 3.5 SD of the protein, either way, in both replicates (recomputed)
# [1] = compound: CC1=C(C=C(C=C1)NC(=O)C2=CC(=CC=C2)C(C)(C)C#N)NC3=CC4=C(C=C3)N=CN(C4=O)C
# Summary of the method: (§1)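 For each measurement, 10 μM compound was applied for 30 min to K562 cells at 2×10^6 cells/mL. Aliquots were heated for 3 min across 48°C-58°C, pooled, and extracted in PBS with 0.5% NP-40 at 4°C; the supernatant after 21,000xg for 90 min was soluble protein. This was quantified by TMTpro 16plex LC-MS/MS with channel sums equalised, and thermal stability was reported relative to control samples from duplicates, on a log2 fold-change scale.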
# [2] = compound: CCCc1cc(C)[nH]c(=O)c1CNC(=O)c1cc(-c2ccnc(N3CCN(C)CC3)c2)cc2c1cnn2C(C)C
# Summary of the method: as §1
# barasertib = compound: CCN(CCCOc1ccc2c(Nc3cc(CC(=O)Nc4cccc(F)c4)[nH]n3)ncnc2c1)CCOP(=O)(O)O [barasertib]
# Summary of the method: as §1
# rosiglitazone = compound: CN(CCOC1=CC=C(C=C1)C[C@H]2C(=O)NC(=O)S2)C3=CC=CC=N3 (racemic) [rosiglitazone]
# Summary of the method: as §1
# givinostat = compound: CCN(CC)Cc1ccc2cc(COC(=O)Nc3ccc(C(=O)NO)cc3)ccc2c1 [givinostat]
# Summary of the method: as §1
# [3] = compound: CC[C@@H]1C(=O)N(C)c2cnc(Nc3ccc(C(=O)NC4CCN(C)CC4)cc3OC)nc2N1C1CCCC1
# Summary of the method: as §1
# [4] = compound: CCn1c(C(=O)N(C2CC2)C2CC2)cc2c3c(ncn3C)c(Nc3cc(C)n(C)n3)nc21
# Summary of the method: as §1
# [5] = compound: CCn1cc(-c2ccnc3[nH]c(-c4cccc(CN(C)C)c4)cc23)c(-c2ccc(NC(=O)N(C)C)cc2)n1
# Summary of the method: as §1
# [6] = compound: CN1C2=C(C3=C1C(=O)N(N=C3)CC4=CC(=CC=C4)N)SC(=C2)S(=O)C
# Summary of the method: as §1
# [7] = compound: CN1CCC(CNc2ccc3ncc(-c4cccc(OC(F)(F)F)c4)n3n2)CC1
# Summary of the method: as §1
# [8] = compound: CC1=CC=C(C=C1)SC2=C3C=C(SC3=CN=C2)C(=O)N
# Summary of the method: as §1
# Nexturastat A = compound: CCCCN(Cc1ccc(C(=O)NO)cc1)C(=O)Nc1ccccc1 [Nexturastat A]
# Summary of the method: as §1
# vemurafenib = compound: CCCS(=O)(=O)Nc1ccc(F)c(C(=O)c2c[nH]c3ncc(-c4ccc(Cl)cc4)cc23)c1F [vemurafenib]
# Summary of the method: as §1
# [9] = compound: CCCS(=O)(=O)Nc1ccc(F)c(C(=O)c2c[nH]c3ncc(Cl)cc23)c1F
# Summary of the method: as §1
# volasertib = compound: CC[C@@H]1C(=O)N(C)c2cnc(Nc3ccc(C(=O)N[C@H]4CC[C@H](N5CCN(CC6CC6)CC5)CC4)cc3OC)nc2N1C(C)C [volasertib]
# Summary of the method: as §1
# epoxomicin = compound: CC[C@H](C)[C@@H](C(=O)N[C@@H]([C@@H](C)O)C(=O)N[C@@H](CC(C)C)C(=O)[C@]1(CO1)C)NC(=O)[C@H]([C@@H](C)CC)N(C)C(=O)C [epoxomicin]
# Summary of the method: as §1
# [10] = compound: CN(C)CC(=O)Nc1ccc2[nH]c(=O)c3ccccc3c2c1
# Summary of the method: as §1
# [11] = compound: CC1=C(C=C(C=C1)NC(=O)C2=CC(=CC=C2)N(C)C)NC(=O)C3=CC=C(C=C3)O
# Summary of the method: as §1
# [12] = compound: CC1=NC(=CC=C1)C2=C(N=C(N2)C(C)(C)C)C3=CC4=NC=CN=C4C=C3
# Summary of the method: as §1
# [13] = compound: CC[C@H](C)N1C=C(C2=C(C=C(C=C21)C3=CN=C(C=C3)N4CCNCC4)C(=O)NCC5=C(C=C(NC5=O)C)C)C
# Summary of the method: as §1
target,measurement,setting,value
RAPGEF1 isoform 3 (UniProt Q13905),log2 fold change,[1],inactive: 0.012
same,log2 fold change,[2],inactive: -0.074
same,log2 fold change,barasertib,inactive: -0.04
same,log2 fold change,rosiglitazone,inactive: 0.114
RBBP4 isoform 2 (UniProt Q09028),log2 fold change,[2],inactive: -0.06
same,log2 fold change,givinostat,inactive: 0.059
same,log2 fold change,barasertib,inactive: -0.011
same,log2 fold change,[3],inactive: 0.035
same,log2 fold change,[4],inactive: -0.028
same,log2 fold change,[5],inactive: 0.096
same,log2 fold change,rosiglitazone,inactive: 0.074
same,log2 fold change,[6],inactive: 0.028
same,log2 fold change,[7],inactive: -0.002
RBCK1 (UniProt Q9BYM8),log2 fold change,[8],inactive: -0.093
same,log2 fold change,Nexturastat A,inactive: -0.104
same,log2 fold change,vemurafenib,inactive: -0.04
same,log2 fold change,[9],inactive: 0.184
same,log2 fold change,givinostat,inactive: 0.008
same,log2 fold change,volasertib,inactive: -0.099
same,log2 fold change,epoxomicin,inactive: -0.033
same,log2 fold change,[4],inactive: 0.032
same,log2 fold change,[10],inactive: 0.028
same,log2 fold change,[6],inactive: -0.002
RAB28 (UniProt P51157),log2 fold change,[11],inactive: -0.217
same,log2 fold change,[12],inactive: 0.043
same,log2 fold change,vemurafenib,inactive: -0.038
same,log2 fold change,givinostat,inactive: -0.058
same,log2 fold change,[4],inactive: -0.086
same,log2 fold change,[5],inactive: 0.006
same,log2 fold change,[10],inactive: -0.027
same,log2 fold change,[6],inactive: -0.029
same,log2 fold change,[7],inactive: -0.16
RBKS (UniProt Q9H477),log2 fold change,[11],inactive: 0.019
same,log2 fold change,[8],inactive: 0.038
same,log2 fold change,vemurafenib,inactive: -0.155
same,log2 fold change,[9],inactive: -0.029
same,log2 fold change,[2],inactive: -0.131
same,log2 fold change,[3],inactive: -0.101
same,log2 fold change,volasertib,inactive: -0.178
same,log2 fold change,[10],inactive: 0.12
RAB3D (UniProt O95716),log2 fold change,[11],inactive: 0.074
same,log2 fold change,[8],inactive: 0.036
same,log2 fold change,vemurafenib,inactive: -0.113
same,log2 fold change,[9],inactive: 0.094
same,log2 fold change,[2],inactive: 0.032
same,log2 fold change,givinostat,inactive: -0.08
same,log2 fold change,barasertib,inactive: 0.034
same,log2 fold change,[3],inactive: 0.039
same,log2 fold change,volasertib,inactive: 0.025
same,log2 fold change,[13],inactive: 0.097
same,log2 fold change,[5],inactive: 0.041
same,log2 fold change,[10],inactive: -0.098
same,log2 fold change,[6],inactive: 0.103
same,log2 fold change,[7],inactive: 0.129
RBFA (UniProt Q8N0V3),log2 fold change,[8],inactive: 0.143
same,log2 fold change,[9],inactive: 0.108
same,log2 fold change,[3],inactive: -0.081
same,log2 fold change,volasertib,inactive: 0.024
RAB19 isoform 2 (UniProt A4D1S5),log2 fold change,[1],inactive: -0.251
same,log2 fold change,[12],inactive: -0.057
same,log2 fold change,Nexturastat A,inactive: -0.001
same,log2 fold change,barasertib,inactive: -0.091
same,log2 fold change,epoxomicin,inactive: 0
same,log2 fold change,rosiglitazone,inactive: -0.118
R3HDM4 (UniProt Q96D70),log2 fold change,[1],inactive: -0.404
same,log2 fold change,[8],inactive: 0
same,log2 fold change,Nexturastat A,inactive: 0.042
same,log2 fold change,vemurafenib,inactive: 0.1
same,log2 fold change,[9],inactive: 0.017
same,log2 fold change,[2],inactive: 0.221
same,log2 fold change,givinostat,inactive: -0.004
same,log2 fold change,barasertib,inactive: -0.013
same,log2 fold change,[3],inactive: -0.106
same,log2 fold change,volasertib,inactive: -0.034
same,log2 fold change,[13],inactive: 0.043
same,log2 fold change,epoxomicin,inactive: 0.108
same,log2 fold change,[4],inactive: 0.046
same,log2 fold change,[10],inactive: -0.012
same,log2 fold change,rosiglitazone,inactive: 0.151
same,log2 fold change,[6],inactive: -0.058
RALGPS2 (UniProt Q86X27),log2 fold change,[12],inactive: -0.234
same,log2 fold change,Nexturastat A,active: 1.06
same,log2 fold change,vemurafenib,inactive: 0.023
same,log2 fold change,[2],inactive: -0.128
same,log2 fold change,givinostat,inactive: -0.147
same,log2 fold change,barasertib,inactive: -0.116
same,log2 fold change,[3],inactive: 0.139
same,log2 fold change,epoxomicin,inactive: -0.247
same,log2 fold change,[5],inactive: -0.203
same,log2 fold change,[10],inactive: -0.059
same,log2 fold change,[6],inactive: 0.137
same,log2 fold change,[7],inactive: 0.082
RASSF1 (UniProt Q9NS23),log2 fold change,[1],inactive: 0.063
same,log2 fold change,[11],inactive: 0.065
same,log2 fold change,vemurafenib,inactive: -0.215
same,log2 fold change,[10],inactive: 0.025
RABEP2 (UniProt Q9H5N1),log2 fold change,[11],inactive: -0.089
same,log2 fold change,givinostat,inactive: 0.001
same,log2 fold change,[4],inactive: -0.088
RBL1 (UniProt P28749),log2 fold change,givinostat,inactive: 0.301
same,log2 fold change,barasertib,inactive: -0.052
same,log2 fold change,[3],inactive: -0.037
same,log2 fold change,[13],inactive: -0.079
same,log2 fold change,[4],inactive: -0.115
same,log2 fold change,[5],inactive: -0.003
same,log2 fold change,rosiglitazone,inactive: 0.06
same,log2 fold change,[7],inactive: -0.19
RAPGEF4 (UniProt Q8WZA2),log2 fold change,[1],inactive: -0.046
same,log2 fold change,[12],inactive: -0.235
same,log2 fold change,Nexturastat A,inactive: 0.245
same,log2 fold change,vemurafenib,inactive: -0.267
same,log2 fold change,[2],inactive: -0.203
same,log2 fold change,givinostat,inactive: 0.248
same,log2 fold change,barasertib,inactive: 0.041
same,log2 fold change,[3],inactive: -0.13
same,log2 fold change,epoxomicin,inactive: -0.038
same,log2 fold change,[10],inactive: -0.011
same,log2 fold change,[6],inactive: -0.036
RAP1B (UniProt F5GWU8),log2 fold change,[11],inactive: 0.473
same,log2 fold change,[8],inactive: -0.115
same,log2 fold change,[12],inactive: -0.197
same,log2 fold change,vemurafenib,inactive: 0.11
same,log2 fold change,[9],inactive: 0.002
same,log2 fold change,volasertib,inactive: -0.138
same,log2 fold change,[10],inactive: -0.271
same,log2 fold change,[6],inactive: -0.005

# Reprinted at random: five entries already listed, in no set order.
target,measurement,setting,value
RAB19 isoform 2 (UniProt A4D1S5),log2 fold change,barasertib,inactive: -0.091
R3HDM4 (UniProt Q96D70),log2 fold change,[1],inactive: -0.404
same,log2 fold change,[10],inactive: -0.012
RAPGEF4 (UniProt Q8WZA2),log2 fold change,[3],inactive: -0.13
RAB28 (UniProt P51157),log2 fold change,[11],inactive: -0.217
